Laboratory results reported in paper PMC7864943.
No constants are given. Whether binding was seen depends on the method and setting. Binding can be weak; no strength is given.

What was measured:
human p23 (human) [1] = target: T1, human p23 (human) (UniProt Q15185); test: NMR titration; 1H-15N HSQC of 15N-labeled p23 with full-length Hsp90/AMP-PNP and GR-LBDm together (ternary complex); peak intensity ratios; both purified
T1 sequence: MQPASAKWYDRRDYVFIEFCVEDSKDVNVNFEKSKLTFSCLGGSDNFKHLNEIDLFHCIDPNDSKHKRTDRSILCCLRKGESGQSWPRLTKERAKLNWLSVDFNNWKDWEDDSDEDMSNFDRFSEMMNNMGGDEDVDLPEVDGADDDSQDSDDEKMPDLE

[2] = target: T2, yeast p23 (Sba1) wild type (yeast) (UniProt P28707); test: as above
T2 sequence: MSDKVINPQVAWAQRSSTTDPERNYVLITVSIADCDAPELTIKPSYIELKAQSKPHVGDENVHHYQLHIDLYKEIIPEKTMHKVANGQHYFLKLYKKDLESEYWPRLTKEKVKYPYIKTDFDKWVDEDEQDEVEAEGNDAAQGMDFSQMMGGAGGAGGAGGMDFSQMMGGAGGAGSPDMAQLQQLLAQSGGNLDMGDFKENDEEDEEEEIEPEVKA

human p23 (human) [3] = target: T1, human p23 (human); test: NMR titration; 1H-15N HSQC of 15N-labeled p23 with unlabeled full-length Hsp90/AMP-PNP or GR-LBDm alone; peak intensity ratios; 25 mM Tris, 200 mM NaCl, 5 mM DTT, 0.5 mM dexamethasone, pH 7; 30 °C; both purified
[4] = target: T2, yeast p23 (Sba1) wild type (yeast); test: as above

binding (human p23 (human) [1]): binds
binding [2]: binds
binding (human p23 (human) [3]): binds
binding [4]: binds
Substance: glucocorticoid receptor ligand binding domain (GR-LBDm) (domain or fragment)
